# Assay results: the supplement of paper PMC8728848
# The other results are listed elsewhere or left out.
# B1: Epa20 (Candida glabrata) (protein)
# chain: MGSSHHHHHHSSGLVPRGSHMASSNIPNNYPLGCSNKYSGHLPGLKMELYSYNYVNPRHPDPQNPGKLDQLYDPNLLGTYECFDSSYKDINYPRVGYKSKTLIGRSDGVSGILNFNFVPPWGCMPQKGQLPPAYNFKSNITLSNFTMILFGYFKPKISGNHIFSLHGDDLIYLNFGAGNAFDCCRQESSADNFGNYQAFSLWGINWEKKTLTVYLDMNTYYPIRIFYNNRDYQAIFNFSFKTEFDSSPVIDFQDYFFFLRDIDGGCPGEV
# How the values were obtained:
# Experiment in all cases: glycan array binding signal (z-score within array); higher = stronger binding
# Settings in all cases: glycan notation: IUPAC condensed, linker removed
# [1] = target: Neu5Ac(a2-6)Gal(b1-4)GlcNAc(b1-3)[Neu5Ac(a2-6)Gal(b1-4)GlcNAc(b1-6)]GalNAc
# Summary of the method: (§1)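 Glycan array data came from 3228 arrays in the Consortium for Functional Glycomics database, and only arrays with an available protein sequence were kept. Glycan names were put into IUPAC-condensed notation, and columns mapping to the same glycan were averaged. The binding signal is a within-array Z-score, averaged across arrays of one protein sequence run at different concentrations or buffers and across linkers. A negative Z-score can be read as non-binding.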
# [2] = target: Neu5Ac(a2-6)Gal(b1-4)GlcNAc(b1-6)GalNAc
# Summary of the method: as §1
# [3] = target: Neu5Ac(a2-6)Gal(b1-4)GlcNAc(b1-6)[Gal(b1-3)GlcNAc(b1-3)]Gal(b1-4)Glc
# Summary of the method: as §1
# [4] = target: Neu5Ac(a2-6)Gal(b1-4)GlcNAc(b1-6)[Gal(b1-3)]GalNAc
# Summary of the method: as §1
# [5] = target: Neu5Ac(a2-6)Gal(b1-4)GlcNAc6S
# Summary of the method: as §1
# Neu5Ac(a2-6)GalNAc = target: Neu5Ac(a2-6)GalNAc
# Summary of the method: as §1
# [6] = target: Neu5Ac(a2-6)GalNAc(b1-4)GlcNAc
# Summary of the method: as §1
# [7] = target: Neu5Ac(a2-6)GalNAc(b1-4)GlcNAc6S
# Summary of the method: as §1
# [8] = target: Neu5Ac(a2-6)GlcNAc(b1-4)GlcNAc
# Summary of the method: as §1
# [9] = target: Neu5Ac(a2-6)GlcNAc(b1-4)GlcNAc(b1-4)GlcNAc
# Summary of the method: as §1
# Neu5Ac(a2-8)Neu5Ac = target: Neu5Ac(a2-8)Neu5Ac
# Summary of the method: as §1
# [10] = target: Neu5Ac(a2-8)Neu5Ac(a2-3)Gal(b1-3)GalNAc(b1-4)[Neu5Ac(a2-3)]Gal(b1-4)Glc
# Summary of the method: as §1
# [11] = target: Neu5Ac(a2-8)Neu5Ac(a2-3)Gal(b1-3)GalNAc(b1-4)[Neu5Ac(a2-8)Neu5Ac(a2-3)]Gal(b1-4)Glc
# Summary of the method: as §1
# [12] = target: Neu5Ac(a2-8)Neu5Ac(a2-3)Gal(b1-4)Glc
# Summary of the method: as §1
# [13] = target: Neu5Ac(a2-8)Neu5Ac(a2-3)Gal(b1-4)GlcNAc
# Summary of the method: as §1
# [14] = target: Neu5Ac(a2-8)Neu5Ac(a2-3)[Gal(b1-3)GalNAc(b1-4)]Gal(b1-4)Glc
# Summary of the method: as §1
# [15] = target: Neu5Ac(a2-8)Neu5Ac(a2-3)[GalNAc(b1-4)]Gal(b1-4)Glc
# Summary of the method: as §1
# [16] = target: Neu5Ac(a2-8)Neu5Ac(a2-8)Neu5Ac
# Summary of the method: as §1
# [17] = target: Neu5Ac(a2-8)Neu5Ac(a2-8)Neu5Ac(a2-3)Gal(b1-4)Glc
# Summary of the method: as §1
# [18] = target: Neu5Ac(a2-8)Neu5Ac(a2-8)Neu5Ac(a2-3)[Gal(b1-3)GalNAc(b1-4)]Gal(b1-4)Glc
# Summary of the method: as §1
# [19] = target: Neu5Ac(a2-8)Neu5Ac(a2-8)Neu5Ac(a2-3)[GalNAc(b1-4)]Gal(b1-4)Glc
# Summary of the method: as §1
# [20] = target: Neu5Ac(a2-8)Neu5Ac(a2-8)Neu5Ac(a2-8)Neu5Ac(a2-3)[GalNAc(b1-4)]Gal(b1-4)Glc
# Summary of the method: as §1
# [21] = target: Neu5Ac(a2-8)Neu5Gc(a2-3)Gal(b1-4)GlcNAc
# Summary of the method: as §1
# [22] = target: Neu5Ac(b2-6)Gal(b1-4)GlcNAc
# Summary of the method: as §1
# Neu5Ac(b2-6)GalNAc = target: Neu5Ac(b2-6)GalNAc
# Summary of the method: as §1
# [23] = target: Neu5Ac9Ac(a2-3)Gal(b1-3)GlcNAc
# Summary of the method: as §1
# [24] = target: Neu5Ac9Ac(a2-3)Gal(b1-4)GlcNAc
# Summary of the method: as §1
# [25] = target: Neu5Ac9Ac(a2-6)Gal(b1-4)GlcNAc
# Summary of the method: as §1
# [26] = target: Neu5Gc(a2-3)Gal(b1-3)GlcNAc
# Summary of the method: as §1
# [27] = target: Neu5Gc(a2-3)Gal(b1-3)[Fuc(a1-4)]GlcNAc
# Summary of the method: as §1
# Neu5Gc(a2-3)Gal(b1-4)Glc = target: Neu5Gc(a2-3)Gal(b1-4)Glc
# Summary of the method: as §1
# [28] = target: Neu5Gc(a2-3)Gal(b1-4)GlcNAc
# Summary of the method: as §1
# [29] = target: Neu5Gc(a2-3)Gal(b1-4)GlcNAc(b1-3)Gal(b1-4)GlcNAc(b1-2)Man(a1-3)[Neu5Gc(a2-3)Gal(b1-4)GlcNAc(b1-3)Gal(b1-4)GlcNAc(b1-2)Man(a1-6)]Man(b1-4)GlcNAc(b1-4)GlcNAc
# Summary of the method: as §1
# [30] = target: Neu5Gc(a2-3)Gal(b1-4)[Fuc(a1-3)]GlcNAc
# Summary of the method: as §1
# [31] = target: Neu5Gc(a2-6)Gal(b1-4)GlcNAc
# Summary of the method: as §1
# Neu5Gc(a2-6)GalNAc = target: Neu5Gc(a2-6)GalNAc
# Summary of the method: as §1
# [32] = target: Neu5Gc(a2-8)Neu5Ac(a2-3)Gal(b1-4)GlcNAc
# Summary of the method: as §1
# [33] = target: Neu5Gc(a2-8)Neu5Gc(a2-3)Gal(b1-4)GlcNAc
# Summary of the method: as §1
binder,measurement,setting,value
B1,glycan array binding signal (z-score),[1],-0.014
same,glycan array binding signal (z-score),[2],0.553
same,glycan array binding signal (z-score),[3],-0.192
same,glycan array binding signal (z-score),[4],0.163
same,glycan array binding signal (z-score),[5],-0.384
same,glycan array binding signal (z-score),Neu5Ac(a2-6)GalNAc,-0.86
same,glycan array binding signal (z-score),[6],-0.36
same,glycan array binding signal (z-score),[7],0.195
same,glycan array binding signal (z-score),[8],-0.436
same,glycan array binding signal (z-score),[9],-0.124
same,glycan array binding signal (z-score),Neu5Ac(a2-8)Neu5Ac,-0.089
same,glycan array binding signal (z-score),[10],0.409
same,glycan array binding signal (z-score),[11],-0.008
same,glycan array binding signal (z-score),[12],-0.689
same,glycan array binding signal (z-score),[13],-0.561
same,glycan array binding signal (z-score),[14],-0.512
same,glycan array binding signal (z-score),[15],-0.398
same,glycan array binding signal (z-score),[16],-0.084
same,glycan array binding signal (z-score),[17],0.317
same,glycan array binding signal (z-score),[18],0.62
same,glycan array binding signal (z-score),[19],-0.236
same,glycan array binding signal (z-score),[20],-0.02
same,glycan array binding signal (z-score),[21],-0.758
same,glycan array binding signal (z-score),[22],-0.461
same,glycan array binding signal (z-score),Neu5Ac(b2-6)GalNAc,-0.57
same,glycan array binding signal (z-score),[23],-0.388
same,glycan array binding signal (z-score),[24],-0.876
same,glycan array binding signal (z-score),[25],-0.728
same,glycan array binding signal (z-score),[26],-0.321
same,glycan array binding signal (z-score),[27],-0.17
same,glycan array binding signal (z-score),Neu5Gc(a2-3)Gal(b1-4)Glc,0.046
same,glycan array binding signal (z-score),[28],-0.19
same,glycan array binding signal (z-score),[29],0.137
same,glycan array binding signal (z-score),[30],-0.003
same,glycan array binding signal (z-score),[31],0.013
same,glycan array binding signal (z-score),Neu5Gc(a2-6)GalNAc,-1.15
same,glycan array binding signal (z-score),[32],-0.522
same,glycan array binding signal (z-score),[33],-0.62

# Reprinted at random: 2 records from the list.
binder,measurement,setting,value
B1,glycan array binding signal (z-score),[23],-0.388
same,glycan array binding signal (z-score),[19],-0.236
